# Test results published in PubChem BioAssay (Tox21).
# Sequences of proteins named here, by UniProt entry; tags and fusion partners are left off. A change or cut given only in a name is not applied to a line headed by its entry.
# UniProt P11473: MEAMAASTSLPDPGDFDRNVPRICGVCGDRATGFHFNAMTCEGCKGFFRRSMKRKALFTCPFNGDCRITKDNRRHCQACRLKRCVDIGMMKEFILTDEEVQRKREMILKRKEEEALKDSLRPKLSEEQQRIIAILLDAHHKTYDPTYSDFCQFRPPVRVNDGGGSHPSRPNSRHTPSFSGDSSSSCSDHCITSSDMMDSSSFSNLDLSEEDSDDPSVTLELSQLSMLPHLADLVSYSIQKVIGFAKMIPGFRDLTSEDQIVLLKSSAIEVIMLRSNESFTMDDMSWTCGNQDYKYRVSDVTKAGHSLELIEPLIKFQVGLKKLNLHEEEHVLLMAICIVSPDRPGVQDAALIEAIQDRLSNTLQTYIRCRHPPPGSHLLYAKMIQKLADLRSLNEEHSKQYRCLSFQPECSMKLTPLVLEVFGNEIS
# This list was built around the results that the source calls inconclusive (neither active nor inactive); the mix of calls is not that of the screen. Potencies of inconclusive entries are doubtful fits and often do not repeat. Activity calls are given as the source filed them. Unless noted, calls come from the whole dose curve; as a rule, active = well fitted cell-killing curve with a large enough effect in the repeat runs; inconclusive = weak or mixed curves, or effect the other way; inactive = no such curve, though single readings can be large or run the other way.
# Biological target: Vitamin D3 receptor (Homo sapiens) (UniProt P11473)
# Assay: qHTS assay to identify small molecule antagonists of the vitamin D receptor (VDR) signaling pathway (AID 743223; active = well fitted inhibition curve with a large enough effect in the signal ratio in the repeat runs, not every such curve was filed as active; inconclusive = weak or mixed curves, or effect the other way; inactive = no such curve, though single readings can be large or run the other way; the % refers to the signal ratio)
# Settings: VDR-UAS-bla HEK293T, beta-lactamase FRET ratio, 16 h; activity change, negative = inhibition: at 61 µM (top of the series) unless noted
# Method in brief: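 Antagonist mode uses 1alpha,25-dihydroxyvitamin D3 at 3 nM final as stimulus. VDR-bla cells receive compounds in DMSO, incubate 16 h at 37C, then a beta-lactamase FRET substrate for 2 h at room temperature before fluorescence measurement.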
# % is set by controls: 0 for no effect and ±100 for the full control effect; potency is the fitted concentration of half-maximal effect.
Compound,"activity change, negative = inhibition",Potency
O=C(c1ccccc1)C(O)c1ccccc1 (centres undefined),inconclusive: -8.35%,–
c1ccc(OCc2ccc(CCCN3CCOCC3)cc2)cc1,–,inactive
O=C(O)c1cc(C(=O)O)c(C(=O)O)cc1C(=O)O,–,inactive
CCCCC(C=O)CC (centres undefined),inconclusive: -11.6% [at 78.8 µM],"inconclusive: 5.79 µM [inhibitor, full curve, poor fit]"
C1N2CN3CN1CN(C2)C3,inconclusive: -2.85%,"inconclusive: 4.25 µM [inhibitor, full curve, poor fit]"
N=C(N)c1ccc(OCCCOc2ccc(C(=N)N)cc2)cc1,–,inactive
FC(F)(F)C(Cl)(Cl)Cl,inconclusive: 25.9%,–
O=C(NS(=O)(=O)/C=C/c1cccs1)c1ccc(F)cc1Br,–,inactive
CCOC(=O)C(C)Oc1ccc(Oc2nc3ccc(Cl)cc3o2)cc1 (centres undefined),inconclusive: -3.38%,–
OCC(CO)N[C@H]1C[C@](O)(CO)[C@@H](O)[C@H](O)[C@H]1O,inconclusive: 1.11%,–
O=C1OCCO1,inconclusive: 2.86% [at 78.8 µM],–
Nc1ccc(-c2ccc(F)cc2)cc1,–,"inconclusive: 2.19 µM [activator, partial curve, poor fit]"
OCCOCCOCCO,–,"inconclusive: 8.06 µM [fluorescent, full curve, poor fit] and inactive"
CCCS(=O)c1ccc2nc(NC(=O)OC)[nH]c2c1 (centres undefined),inconclusive: -38.9%,–
Cc1c(C)n(CCN(C)C)c2ccc(C(=O)OCCN(C)C)cc12,–,inactive

# Complete entries, looked up by structure. Values in the order: activity change, negative = inhibition | Potency
# O=C1OCCO1 reads inconclusive: 2.86% [at 78.8 µM] | –
# O=C(NS(=O)(=O)/C=C/c1cccs1)c1ccc(F)cc1Br reads – | inactive

# Test system: not listed separately
# Assay: qHTS assay to identify small molecule antagonists of the vitamin D receptor (VDR) signaling pathway - cell viability counter screen (AID 743225); note: nearly all actives have a fitted effect of over 50% in size
# Settings: VDR-bla HEK293T viability, CellTiter-Glo luminescence, 16 h; viability change, negative = cytotoxic: at 61 µM (top of the series) unless noted
# Method in brief: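 Read-out: CellTiter-Glo luminescence measured 30 min after reagent addition at room temperature. Cells were VDR-bla HEK 293T exposed 16 h at 37C, 5% CO2, to compound with 3 nM final calcitriol agonist.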
Compound,Potency,"viability change, negative = cytotoxic"
Cc1cn([C@H]2C=C[C@@H](CO)O2)c(=O)[nH]c1=O,inactive,–
CCCCC(C=O)CC (centres undefined),–,inconclusive: -2.49% [cytotoxic] [at 78.8 µM]
OC[C@H](Cc1cccc(O)c1)[C@H](CO)Cc1cccc(O)c1,inactive,–
O=C(NS(=O)(=O)/C=C/c1cccs1)c1ccc(F)cc1Br,inactive,–
CC(C)CC(=O)C1C(=O)c2ccccc2C1=O,"inconclusive: 21.9 µM [cytotoxic, single point]",–
c1ccc(Oc2ccccc2)cc1,"inconclusive: 0.505 µM [cytotoxic, single point]",–
CCCC(=O)c1ccccc1,inactive,–
